The other results are listed elsewhere or left out. Plates or batches differ in their baseline, so values are only roughly comparable.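 Hits were defined as a z-score below −3.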
Each molecule was assayed against T1, YTHDF1 YTH domain (aa 365-554) (UniProt Q9BYJ9) (assay: tryptophan fluorescence intensity z-score (mean); higher = higher fluorescence, less quenching (negative = binding / quenching)). Details: 10 µM.
T1 sequence (whole entry): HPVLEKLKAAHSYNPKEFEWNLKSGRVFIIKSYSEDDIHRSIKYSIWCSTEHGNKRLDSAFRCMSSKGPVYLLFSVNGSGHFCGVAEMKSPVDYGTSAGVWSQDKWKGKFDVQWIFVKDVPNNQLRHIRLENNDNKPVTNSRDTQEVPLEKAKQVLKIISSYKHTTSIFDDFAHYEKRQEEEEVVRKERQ

Tryptophan fluorescence intensity z-score, inactive:
CC=CC(=O)N(CC)c1ccccc1C (plate: M 9-10) 0.0282, CNCCc1ccccn1 (plate: M 5-6) -0.19, NCCCCCC(=O)O (plate: M 1-2) -0.168, CN(C)C(=N)NC(=N)N (plate: M 11-12) -0.584, CC(=O)OC/C=C(\C)CC/C=C(\C)CC/C=C(\C)CC/C=C(\C)CC/C=C(\C)CC/C=C(\C)CC/C=C(\C)CC/C=C(\C)CCC=C(C)C (plate: M 19-20) 0.27, CC(=O)O[C@]1(C(C)=O)CC[C@H]2[C@@H]3C=C(Cl)C4=CC(=O)CC[C@]4(C)[C@H]3CC[C@@]21C (plate: M 9-10) -0.63, CCN(CC)C(C)CN1c2ccccc2Sc2ccccc21 (stereo unspecified) (plate: M 3-4) -0.46, CCCNC(=O)NS(=O)(=O)c1ccc(Cl)cc1 (plate: M 1-2) 0.175, CC1(C)CC2C1CC[C@]1(C)CCC3C(C(=O)O)CC(=O)O[C@@]32C1 (stereo partly specified) [3-HYDROXY-4-(SUCCIN-2-YL)-CARYOLANEdelta-LACTONE] (plate: M 17-18) 0.269, CO[C@H]1/C=C/O[C@@]2(C)Oc3c(C)c(O)c4c(O)c(c5c(nc6cc(C)ccn65)c4c3C2=O)NC(=O)/C(C)=C\C=C\[C@H](C)[C@H](O)[C@@H](C)[C@@H](O)[C@@H](C)[C@H](OC(C)=O)[C@@H]1C (plate: M 9-10) -0.812, Clc1cccc(Cl)c1NC1=NCCN1 (plate: M 1-2) 0.352, N=C(N)NCCCCNC(=N)N (plate: M 21-22) 0.471, COC(=O)Nc1nc2cc(Sc3ccccc3)ccc2[nH]1 (plate: M 7-8) 0.0463, CN1CCN(CC(=O)N2c3ccccc3C(=O)Nc3cccnc32)CC1 (plate: M 7-8) 0.218, Oc1cc2c(cc1O)C(c1ccccc1)CNCC2 (stereo unspecified) (plate: M 23-24) 0.364, CC(C)NCC(O)COc1ccc(CC(N)=O)cc1 (stereo unspecified) (plate: M 7-8) 0.528, NC(Cn1ccc(=O)c(O)c1)C(=O)O (stereo unspecified) (plate: M 17-18) 0.879, CCC1(c2ccccc2)C(=O)NCNC1=O (plate: M 5-6) 0.401, N#Cc1ccc2c(c1)N(CCCN1CCC(O)CC1)c1ccccc1S2 (plate: M 21-22) 0.112, CN(C)CCC(c1ccc(Br)cc1)c1ccccn1 (stereo unspecified) (plate: M 9-10) -0.482, c1ccc(-c2ccc(C(c3ccccc3)n3ccnc3)cc2)cc1 (stereo unspecified) (plate: M 9-10) -0.112
